# Values of other authors as cited in patent US6720011B1, “Injectable composition for cancer treatment” (priority 1995, dated 2004).
# For at least one compound, name, drawing or mass did not settle the structure.
# Test system: APL
# Details: relapse rate high
compound,measurement,value
CC1=C(/C=C/C(C)=C/C=C/C(C)=C/C(=O)O)C(C)(C)CCC1 [retinoic acid],complete remission rate,85%
